Binding data for one molecule are collected here from PMC10938166.

The target of assay [1] is hBSGΔ-FLAG (human basigin lacking the first immunoglobulin-like domain, N152Q/N186Q) (human). Description: co-IP; purified hXKR8–hBSGΔ-FLAG–Fab complex in lipid nanodiscs (29 μg of protein) loaded onto anti-FLAG M2 magnetic beads, 4 °C, 2 h; wash buffer 20 mM Hepes pH 7.0, 100 mM NaCl, 1 mM EGTA; eluted with 3× FLAG peptide; SDS-PAGE, Coomassie Brilliant Blue staining; both purified.

Assay [2] shares this target. Description: cryo-EM structure; hXKR8–hBSGΔ-FLAG–Fab complex in lipid nanodiscs (soybean polar lipids, MSP1E3D1), 0.075% fluorinated Fos-choline 8; single-particle analysis, overall resolution 3.66 Å; both purified.

No constants are given. Whether binding was seen depends on the method and setting. Binding calls can cover weak binding; strength is not graded here. For some assays here: Binding seen in cells or lysates may run through a third protein.

B1: human XK-related 8 (hXKR8) (protein, UniProt Q9H6D3 1-395)
chain: MPWSSRGALLRDLVLGVLGTAAFLLDLGTDLWAAVQYALGGRYLWAALVLALLGLASVALQLFSWLWLRADPAGLHGSQPPRRCLALLHLLQLGYLYRCVQELRQGLLVWQQEEPSEFDLAYADFLALDISMLRLFETFLETAPQLTLVLAIMLQSGRAEYYQWVGICTSFLGISWALLDYHRALRTCLPSKPLLGLGSSVIYFLWNLLLLWPRVLAVALFSALFPSYVALHFLGLWLVLLLWVWLQGTDFMPDPSSEWLYRVTVATILYFSWFNVAEGRTRGRAIIHFAFLLSDSILLVATWVTHSSWLPSGIPLQLWLPVGCGCFFLGLALRLVYYHWLHPSCCWKPDPDQVDGARSLLSPEGYQLPQNRRMTHLAQKFFPKAKDEAASPVKG
For B1, the binding result in assay [1] and in assay [2] was “binds” throughout.
